# Patent US20250189524A1 (priority 2018, published 2025)
# At least one compound was matched to its structure with a doubt left.
# Tested on: E. coli
# Assay: MultiPath rapid AST in polymicrobial samples
# Format: cell-based
# Settings: in the presence 1E7 CFU/mL of a carbapenemase secreting K. pneumoniae NDM1; compared to reference test
structure (smiles),measurement,value
C[C@@H](O)[C@H]1C(=O)N2C(C(=O)O)=C(SCCN=CN)C[C@H]12 [imipenem],E coli MIC,unaffected
